PubChem BioAssay AID1259289, Sanger Institute – 2017
Here is one part, drawn at random, of 794 reagents tested. Of all reagents, 16 (2%) are marked active. 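Active marks cell loss from silencing alone; drug synergy shows only in the synergy scores, not the calls.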 Not all columns of the deposit are shown. Not stated in the record: the amount of reagent, the time to read-out.

Purpose: 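Find kinases whose loss adds to targeted drugs in killing bowel cancer cells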 (primary screen)
Cells: human LS513 colorectal cancer cells
Reagents: siRNA pool against human genes
Conditions: anchor drug BYL719 at 1 µM, cetuximab at 5 µg/ml or trametinib at 10 nM, or DMSO vehicle alone; exposure time not given
Measurement: 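Survival versus non-targeting pool for each arm averaged over replicates, robust z-score in the arm with DMSO only, and synergy scores for BYL719, cetuximab or trametinib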
Reading the numbers: robust z-score, siRNA alone (DMSO): higher = more viable cells; strongly negative means essential
Active means: 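Called essential when silencing alone under DMSO gives a robust z-score below -3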
Meaning of the calls: active = essential (knock-down alone); inactive = not essential

STK33 (GeneID 65975) gave robust z-score, siRNA alone (DMSO) = 0.399; inactive.
After knock-down of NEK11 (GeneID 79858) the results were robust z-score, siRNA alone (DMSO) = 0.561; inactive.
Knock-down of NEK7 (GeneID 140609) resulted in: robust z-score, siRNA alone (DMSO) = 0.561; inactive.
THNSL1 (GeneID 79896) gave robust z-score, siRNA alone (DMSO) = 0.561; inactive.
With knock-down of XYLB (GeneID 9942), the screen gave robust z-score, siRNA alone (DMSO) = 0.561; inactive.
KALRN (GeneID 8997) gave robust z-score, siRNA alone (DMSO) = 0.561; inactive.
Silencing of AKT1 (GeneID 207) came out at: robust z-score, siRNA alone (DMSO) = 0.561; inactive.
Against PTK2 (GeneID 5747) the deposit lists robust z-score, siRNA alone (DMSO) = 0.0382; inactive.
For STAG2 (GeneID 10735), the entry reads robust z-score, siRNA alone (DMSO) = 0.561; inactive.
RNASEL (GeneID 6041) showed robust z-score, siRNA alone (DMSO) = 0.561; inactive.
Against RPS6KB2 (GeneID 6199) the deposit lists robust z-score, siRNA alone (DMSO) = 0.561; inactive.
For PAK3 (GeneID 5063), the values are robust z-score, siRNA alone (DMSO) = -0.825; inactive.
